Test system: Sindbis virus TE/5'2J-GFP
Assay: percent infected (GFP+ in RFP+ ISG-expressing cells); higher = more infection (less antiviral activity)
Description: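 Confirmatory testing of 87 ISGs. Triplicate wells of BHK/HA-Zeo (control) or BHK/NZAP-Zeo (ZAP) cells were transduced with lentiviruses co-expressing a human ISG plus TagRFP, then infected 48 h later with SINV TE/5'2J-GFP (moi 5). The % GFP+ cells among RFP+ cells was measured by flow cytometry at 8 h post infection. Fluc lentivirus served as control. Three independent experiments.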
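Also: Interferon-defective BHK-21 derivatives, ZAP line overexpressing the rat ZAP N-terminal zinc finger domain fused to Zeocin resistance, GFP scored within live singlet TagRFP+ cells.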

MDPNCSCSPVGSCACAGSCKCKECKCTSCKKSCCSCCPVGCAKCAQGCICKGTSDKCSCCA [MT1X]
Conditions | percent infected [%]
experiment: confirmatory screen 1, BHK/HA-Zeo (control) | 96.36
experiment: confirmatory screen 1, BHK/NZAP-Zeo (ZAP) | 76.3
experiment: confirmatory screen 2, BHK/HA-Zeo (control) | 95.95
experiment: confirmatory screen 2, BHK/NZAP-Zeo (ZAP) | 94.54
experiment: confirmatory screen 3, BHK/HA-Zeo (control) | 92.9
experiment: confirmatory screen 3, BHK/NZAP-Zeo (ZAP) | 92.63
